Assay results: PubChem BioAssay AID651640 (Broad Institute, 2012)
Where “and” joins values, the source holds several entries; their conditions need not be identical. Identical values can stand only once. Hit rate of the full screen: of about 350,000 compounds, about 6,000 (1.7%) were called active. The inconclusive results got no clear call from the source; some entries with a clear call stand among them for comparison. No stated cut-off is given here; in the data, active means CPE inhibition above about 20% (passing the limit was not always enough); inconclusive means no clear call, values can overlap the other calls; tested in BHK-21 cells.

test: protection of cells from dengue 2 killing – plate reader, single concentration, primary screen (AID 651640); settings: DENV2-infected cells, cytopathic effect rescue, at 9.99 µM, active compounds read high;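 further: 0% = median of neutral control wells and 100% = median of positive control wells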

| SMILES | CPE inhibition |
| --- | --- |
| O=S(=O)(N(Cc1ccccc1)[C@@H](CO)Cc1ccccc1)N(Cc1ccccc1)[C@@H](CO)Cc1ccccc1 | inconclusive: 92.4% |
| Cc1cc(NC(=O)CSCC(=O)Nc2nc3ccccc3s2)no1 | active: 44.9% |
| CC(C)CC#Cc1cnc2c(c1)C(=O)N([C@H](C)CO)C[C@@H](C)[C@@H](CN(C)Cc1ccc(F)cc1)O2 | inconclusive: 23.6% |
| CC(C)NC(=O)Nc1ccc2c(c1)C(=O)N([C@@H](C)CO)C[C@@H](C)[C@H](CN(C)C(=O)Nc1ccc3c(c1)OCO3)O2 | active: 28.2% |
| COCC(=O)N1C[C@@H]2[C@H](c3ccccc31)[C@H](CO)N2C(=O)Nc1ccccc1Cl | active: 26.5% |
| O=C(Nc1ccccc1)N(CCc1ccncc1)C1CCCCC1 | inconclusive: 23.6% |
| CC(C)(C)CC(=O)N1CCN(Cc2ccc3c(c2)OCO3)CC1 | inconclusive: 20.7% |
| COc1ccc(CC(=O)NCC(=O)N/N=C/c2c[nH]c3ccccc23)cc1 | inconclusive: 22.1% |
| CC(C)C(=O)Nc1ccc([N+](=O)[O-])c(C(F)(F)F)c1 | inconclusive: 69.2% |
| CNC[C@@H]1Oc2ccc(NC(=O)Nc3ccc(F)cc3)cc2C(=O)N([C@H](C)CO)C[C@@H]1C | inconclusive: 45.8% |
| CCOc1cc(/C=C2/C(=O)ON=C2C)cc(Br)c1O | inconclusive: 33.9% |
| COc1cccc(CNC(=O)C[C@H]2CC[C@@H]3[C@@H](COc4ccc(NC(=O)c5cccs5)cc4C(=O)N3C)O2)c1 | inconclusive: 32.9% |
| Brc1ccc(OCCCCN2CCCCC2)cc1 | inconclusive: 26.4% |
| COc1ccc(CCC(C)NCc2cccc(Br)c2)cc1 (stereo not given) | inconclusive: 22.5% |
| CC(=O)c1csc(-c2cccc(-c3nc4ccc(Cl)cn4c3NC3CCCCC3)c2)c1 | inconclusive: 87.8% |
| Cc1noc(C)c1S(=O)(=O)Nc1ccc2c(c1)C(=O)N([C@@H](C)CO)C[C@@H](C)[C@H](CN(C)C(=O)Nc1ccc(C(F)(F)F)cc1)OCCCC[C@@H](C)O2 | inconclusive: 77.2% |
| COC(=O)[C@]1(Cc2ccccc2)N[C@H](CN(C)C(=O)c2ccc(C)cc2)[C@@H]2C(=O)N(Cc3ccccc3)C(=O)[C@@H]21 | inconclusive: 69.6% |
| CCN(CC)P(=O)(Nc1ccc([N+](=O)[O-])cc1)c1c(C)nn(CCC#N)c1NC(=O)c1ccc(Cl)cc1 (stereo not given) | inconclusive: 20% |
| C[C@@H]1CN([C@H](C)CO)C(=O)c2cc(/C=C/c3ccccc3)cnc2O[C@H]1CN(C)C(=O)c1cnccn1 | inactive: 2.69% |
| COc1ccc(O)c(C(=O)c2cnc3c(c2)c(C)nn3CCO)c1 | inconclusive: 30.7% |
| CC(=O)N(C)C[C@@H]1Oc2ncc(-c3ccc(C)cc3)cc2C(=O)N([C@H](C)CO)C[C@@H]1C | inconclusive: 25.9% |
| COc1ccc(NC(=O)N(C)C[C@@H]2Oc3ccc(NS(=O)(=O)c4cn(C)cn4)cc3CC(=O)N([C@H](C)CO)C[C@@H]2C)cc1 | active: 77.1% |
| COc1cccc(-c2cnc3c(c2)C(=O)N([C@@H](C)CO)C[C@H](C)[C@@H](CN(C)Cc2ccccc2)O3)c1 | inconclusive: 28% |
| CC(C)C(=O)Nc1ccc2c(c1)C(=O)N(C)[C@@H]1CC[C@@H](CC(=O)NCc3ccccc3)O[C@@H]1CO2 | inactive: 7.06% |

| SMILES | CPE inhibition |
| --- | --- |
| O=C(C[C@H]1C=C[C@H](NC(=O)c2ccncc2)[C@@H](CO)O1)Nc1ccccc1 | inactive: -5.8% |
| COc1cc2c(cc1OC)-c1c(OC)c(OC)cc3ccnc(c13)C2=O | inconclusive: 47.8% |
| CC(NC(=O)C(c1ccccc1)c1ccccc1)c1ccc(S(N)(=O)=O)cc1 (stereo not given) | inconclusive: 29.4% |
| N#Cc1cc(O)c(-n2nnc3ccccc32)cc1C#N | inactive: 0.462% |
| CCC(=O)N[C@@H]1C=C[C@H](CC(=O)NCC2CC2)O[C@H]1CO | inconclusive: 72.3% |
| Cc1c(C(c2cc(O)ccc2Cl)c2c(C)n(C)n(-c3ccccc3)c2=O)c(=O)n(-c2ccccc2)n1C | inconclusive: 22.7% |
| COc1ccc2c3c([nH]c2c1)[C@@H](CO)N(C(=O)NC(C)C)CC31CCN(Cc2ccc(F)cc2)CC1 | inactive: 13.2% |
| CC(=O)c1cccc(NC(=O)C2CCCN2S(=O)(=O)c2cccs2)c1 (stereo not given) | inactive: -13.1% |
| CC(=O)N(C)C[C@@H]1OCc2ccccc2-c2c(n(C)c3ccccc23)C(=O)N([C@@H](C)CO)C[C@@H]1C | inconclusive: 34.3% |
| CCCCCCCCN1C(=O)[C@H](CC(=O)NCCCCc2ccccc2)C[C@@]2(C(=O)OC)CC(C)(C)CC=C12 | active: 35% |
| CCC(=O)N1CCCCN2[C@H](C1)[C@H](c1ccc(-c3cccnc3)cc1)[C@@H]2CO | active: 37.7% |
| CC1CCCC(NC(=O)COC(=O)/C=C/c2ccc(F)cc2)C1C (stereo not given) | inconclusive: 80.8% |
| O=C(Nc1cccc(-n2cnnn2)c1)C1CCCN(C(=O)Cc2cccc(Cl)c2)C1 (stereo not given) | active: 60.5% |
| CCOc1ccc(NC(=O)CN2CCN(c3ccc(F)cc3)CC2)cc1 | inconclusive: 37.8% |
| C[C@@H]1CN([C@@H](C)CO)C(=O)CCCn2nncc2CO[C@@H]1CN(C)C(=O)C1CCCCC1 | inconclusive: 33.5% |
| Cc1noc(C)c1NC(=O)N(C)C[C@H]1OCCCC[C@@H](C)Oc2ccc(NC(=O)Nc3ccccc3)cc2C(=O)N([C@H](C)CO)C[C@@H]1C | inconclusive: 23.6% |
| CO[C@H]1CN(C)C(=O)c2ccc(NC(C)=O)cc2OC[C@@H](C)N(C(=O)c2ccccn2)C[C@H]1C | inconclusive: 40.2% |
| CCN(CC(=O)NCc1cccs1)C(=O)COc1ccccc1C#N | inconclusive: 21.3% |
| CCCC(=O)N1CC2(C1)CN(S(=O)(=O)c1ccc(C)cc1)[C@H](CO)c1[nH]c3cc(OC)ccc3c12 | inactive: -0.69% |
| CO[C@@H]1CN(C)C(=O)c2ccc(NC(C)=O)cc2OC[C@H](C)N(C(=O)c2ccc(F)cc2)C[C@@H]1C | inconclusive: 26.5% |
| CC(=O)c1cc2c(cc1NC(=O)c1ccc(C)cc1)OCCO2 | inconclusive: 26.5% |
| CCC(=O)N[C@H]1CC[C@H](CCn2cc(C3CC3)nn2)O[C@H]1CO | inconclusive: 25.7% |
| Cc1nc2c(OCc3cc(Cl)cc(Cl)c3)cccn2c1N(C)C(=O)CCC1CCCC1 | inconclusive: 78.5% |
| C[C@H]1CCCCO[C@H](CN(C)C(=O)Nc2cccc3ccccc23)[C@@H](C)CN([C@@H](C)CO)C(=O)c2cc(NC(=O)CCCN(C)C)ccc2O1 | inactive: -16.8% |

| SMILES | CPE inhibition |
| --- | --- |
| COC(=O)C[C@@H]1CC[C@@H]2[C@H](COc3ccc(NC(=O)c4cccc(OC)c4)cc3C(=O)N2C)O1 | inconclusive: 77.8% |
| CCCCNC(=O)c1onc(CSc2ccc(Cl)cc2)c1C(=O)NCCCC | inactive: 0.268% |
| Cc1cc(S(=O)(=O)N2CCOCC2)ccc1OCC(=O)N1CCCCC1 | inconclusive: 25.8% |
| c1ccc2c(c1)ncn2-c1ccc(-c2ccnc3ncnn23)cc1 | inactive: 1.22% |
| Fc1ccc(CNc2nc3ccccc3n3cnnc23)cc1 | inconclusive: 70.9% |
| Cc1ccc(-c2cnc3c(c2)C(=O)N([C@H](C)CO)C[C@@H](C)[C@@H](CN(C)Cc2ccccc2C(=O)O)O3)cc1 | inactive: 1.25% |
| C[C@@H]1CN([C@H](C)CO)C(=O)c2cc(-c3ccccc3F)cnc2O[C@H]1CN(C)C(=O)c1cnccn1 | inconclusive: 22.6% |
| Cc1ccc(S(=O)(=O)Nc2cccc3c2O[C@@H](CN(C)S(=O)(=O)c2cn(C)cn2)[C@H](C)CN([C@@H](C)CO)C3=O)cc1 | inconclusive: 22% |
| C[C@H](CO)N1C[C@H](C)[C@H](CN(C)Cc2cccnc2)OCc2cnnn2CCCC1=O | inconclusive: 21.4% |
| COc1cccc(NC(=O)Nc2ccc3c(c2)C(=O)N(C)[C@H]2CC[C@@H](CC(=O)O)O[C@H]2CO3)c1 | inconclusive: 22.7% |
| CCCC[C@@H]1CNCCN1CCc1cccc2ccccc12 | inconclusive: 36.5% |
| COc1ccc([C@H]2CC(=O)C=C(c3ccc(OC)c(OC)c3)C2)cc1 | inactive: -1% |
| CN1C[C@@H]2[C@@H]3C(=O)N(C)C(=O)[C@@H]3[C@](C)(C1=O)N2C(=O)c1ccc(Cl)c(Cl)c1 | inconclusive: 32.5% |
| O=C(Nc1ccccc1F)N1CC(=O)N2[C@H](CO)[C@H](c3ccc(C#CC4CC4)cc3)[C@H]2C1 | inactive: 6.64% |
| O=C1O[C@H](c2ccccc2)[C@H](c2ccccc2)N2[C@H]1[C@@H](C(=O)N1CCCCCCC1)[C@]1(C(=O)Nc3ccc(C#CCCO)cc31)[C@H]2c1ccc(O)cc1 | inconclusive: 65.3% |
| O=C(Nc1ncccc1O)c1cccc(S(=O)(=O)N2CCCc3ccccc32)c1 | inconclusive: 23.8% |
| COc1ccc(OC)c(C(C)NC(=S)Nc2ccc(S(=O)(=O)Nc3ncccn3)cc2)c1 (stereo not given) | active: 49.8% |
| Cc1ccc(C(=O)NCC(=O)NCC(c2cccs2)N2CCOCC2)cc1C (stereo not given) | active: 93.4% |
| COc1ccc(NC(=O)N(C)C[C@H]2OCCCC[C@@H](C)Oc3ccc(NS(=O)(=O)c4ccc(F)cc4)cc3C(=O)N([C@H](C)CO)C[C@@H]2C)cc1 | inconclusive: 21.6% |
| Cc1cccc(C)c1OCC(=O)NNC(=O)CCCn1c(=O)oc2ccccc21 | active: 45.1% |
| CO[C@@H]1CN(C)C(=O)c2ccc(NC(=O)C3CCC3)cc2OC[C@H](C)N(CC2CCCCC2)C[C@H]1C | inactive: -7.18% and inactive: 0.055% |
| Cc1noc(C)c1NC(=O)Nc1ccc2c(c1)CC(=O)N([C@H](C)CO)C[C@H](C)[C@H](CN(C)C(=O)NC1CCCCC1)O2 | inactive: -6.9% |
